Source: the M2OR odorant receptor database
Substitutions are numbered along the chain they refer to. The entries are a selection whose mix differs from that of the whole data set. The calls were merged from several studies; some rest on single wells. Some of the results follow.

Chains of the proteins cited; added tags and fusions are not shown. A line that says so, or that is headed by a name, gives the form on record, which may keep a tag or linker.
O51V1, as listed by the source: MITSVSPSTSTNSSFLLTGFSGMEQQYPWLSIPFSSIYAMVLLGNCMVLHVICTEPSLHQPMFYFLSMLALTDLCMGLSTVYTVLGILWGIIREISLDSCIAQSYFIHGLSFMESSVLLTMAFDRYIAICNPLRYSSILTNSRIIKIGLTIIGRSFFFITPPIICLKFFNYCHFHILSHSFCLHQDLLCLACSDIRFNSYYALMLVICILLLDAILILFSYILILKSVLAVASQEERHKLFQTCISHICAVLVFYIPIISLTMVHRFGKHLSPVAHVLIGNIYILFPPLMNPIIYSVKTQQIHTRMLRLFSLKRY
O52E4, as listed by the source: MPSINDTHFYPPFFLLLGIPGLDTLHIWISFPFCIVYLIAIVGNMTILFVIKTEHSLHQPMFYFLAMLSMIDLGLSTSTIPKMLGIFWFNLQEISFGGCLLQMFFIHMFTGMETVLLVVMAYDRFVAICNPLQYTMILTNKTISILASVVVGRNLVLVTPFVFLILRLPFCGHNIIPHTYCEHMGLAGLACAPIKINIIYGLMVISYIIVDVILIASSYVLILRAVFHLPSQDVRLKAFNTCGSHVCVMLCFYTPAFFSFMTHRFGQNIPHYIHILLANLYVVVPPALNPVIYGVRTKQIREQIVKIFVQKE
O52E2, as listed by the source: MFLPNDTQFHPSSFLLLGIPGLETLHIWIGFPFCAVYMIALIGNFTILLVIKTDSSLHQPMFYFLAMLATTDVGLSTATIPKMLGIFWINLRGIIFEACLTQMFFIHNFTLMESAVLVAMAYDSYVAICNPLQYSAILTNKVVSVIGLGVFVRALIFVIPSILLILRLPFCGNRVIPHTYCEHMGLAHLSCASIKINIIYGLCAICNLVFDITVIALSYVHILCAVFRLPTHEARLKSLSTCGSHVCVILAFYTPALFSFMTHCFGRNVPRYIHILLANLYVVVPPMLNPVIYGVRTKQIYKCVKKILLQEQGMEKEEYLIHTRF
O52E8, as listed by the source: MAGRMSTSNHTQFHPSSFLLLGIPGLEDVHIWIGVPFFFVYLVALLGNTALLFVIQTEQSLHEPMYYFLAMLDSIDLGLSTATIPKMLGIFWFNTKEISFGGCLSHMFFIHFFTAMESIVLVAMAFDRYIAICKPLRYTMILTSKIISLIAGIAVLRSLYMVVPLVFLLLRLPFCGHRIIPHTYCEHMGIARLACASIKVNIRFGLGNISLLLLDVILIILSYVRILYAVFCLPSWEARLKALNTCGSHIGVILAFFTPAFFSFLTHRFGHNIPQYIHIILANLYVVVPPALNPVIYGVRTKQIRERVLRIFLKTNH
O52E5, as listed by the source: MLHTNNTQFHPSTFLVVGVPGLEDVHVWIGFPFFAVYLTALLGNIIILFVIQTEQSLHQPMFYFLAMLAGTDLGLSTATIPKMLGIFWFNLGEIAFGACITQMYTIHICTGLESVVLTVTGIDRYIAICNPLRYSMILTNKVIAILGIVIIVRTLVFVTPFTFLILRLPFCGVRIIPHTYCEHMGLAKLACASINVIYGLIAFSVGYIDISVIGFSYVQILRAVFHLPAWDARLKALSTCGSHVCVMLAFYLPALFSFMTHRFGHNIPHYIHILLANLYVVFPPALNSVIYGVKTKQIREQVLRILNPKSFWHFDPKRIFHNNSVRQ
O51L1, as listed by the source: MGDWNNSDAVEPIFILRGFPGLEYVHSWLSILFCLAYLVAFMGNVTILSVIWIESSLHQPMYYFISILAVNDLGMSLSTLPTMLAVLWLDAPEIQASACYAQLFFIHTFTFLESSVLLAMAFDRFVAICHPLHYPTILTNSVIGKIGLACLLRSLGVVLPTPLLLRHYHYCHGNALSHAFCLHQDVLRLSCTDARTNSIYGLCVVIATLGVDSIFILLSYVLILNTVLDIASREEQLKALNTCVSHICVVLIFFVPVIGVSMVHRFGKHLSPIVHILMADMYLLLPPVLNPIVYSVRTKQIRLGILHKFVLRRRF
O52E1, as listed by the source: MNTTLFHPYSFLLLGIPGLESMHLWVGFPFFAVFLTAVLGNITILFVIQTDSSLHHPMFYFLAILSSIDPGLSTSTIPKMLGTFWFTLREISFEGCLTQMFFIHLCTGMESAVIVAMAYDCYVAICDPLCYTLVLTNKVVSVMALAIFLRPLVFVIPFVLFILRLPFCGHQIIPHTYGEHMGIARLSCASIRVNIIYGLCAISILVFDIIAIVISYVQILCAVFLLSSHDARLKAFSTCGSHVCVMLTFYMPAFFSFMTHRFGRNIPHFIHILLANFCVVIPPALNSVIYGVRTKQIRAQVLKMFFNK

Assays:
Details in all cases: stereoisomer not certain
O51G1 = test system: T1, O51G1
T1 sequence (whole entry): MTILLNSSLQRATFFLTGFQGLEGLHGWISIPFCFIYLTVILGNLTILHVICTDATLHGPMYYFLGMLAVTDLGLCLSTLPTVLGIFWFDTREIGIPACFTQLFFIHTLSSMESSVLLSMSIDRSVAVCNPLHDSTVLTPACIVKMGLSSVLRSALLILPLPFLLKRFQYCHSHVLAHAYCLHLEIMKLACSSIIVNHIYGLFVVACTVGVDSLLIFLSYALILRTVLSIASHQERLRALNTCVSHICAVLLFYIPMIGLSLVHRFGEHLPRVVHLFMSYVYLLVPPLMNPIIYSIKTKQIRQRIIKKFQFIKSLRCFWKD
How it was run: (§1)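 Each entry records the cell line, G-protein, co-transfected protein and tags used. Methods varied with the source, often transient luciferase assays in mammalian cell lines. A receptor–molecule pair is called responsive (active) if the original authors judged its signal statistically different from baseline and non-responsive (inactive) otherwise.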

O51G2 = test system: T2, O51G2
T2 sequence (whole entry): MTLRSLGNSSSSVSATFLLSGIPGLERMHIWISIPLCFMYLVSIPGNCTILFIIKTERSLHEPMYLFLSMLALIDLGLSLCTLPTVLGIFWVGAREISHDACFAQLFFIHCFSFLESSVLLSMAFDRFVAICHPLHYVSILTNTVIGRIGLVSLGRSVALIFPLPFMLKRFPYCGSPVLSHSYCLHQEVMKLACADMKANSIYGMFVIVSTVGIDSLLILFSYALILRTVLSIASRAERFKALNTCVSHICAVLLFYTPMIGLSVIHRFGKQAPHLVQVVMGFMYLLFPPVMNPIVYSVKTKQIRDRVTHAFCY
How it was run: as §1

O51J1 = test system: T3, O51J1
T3 sequence (whole entry): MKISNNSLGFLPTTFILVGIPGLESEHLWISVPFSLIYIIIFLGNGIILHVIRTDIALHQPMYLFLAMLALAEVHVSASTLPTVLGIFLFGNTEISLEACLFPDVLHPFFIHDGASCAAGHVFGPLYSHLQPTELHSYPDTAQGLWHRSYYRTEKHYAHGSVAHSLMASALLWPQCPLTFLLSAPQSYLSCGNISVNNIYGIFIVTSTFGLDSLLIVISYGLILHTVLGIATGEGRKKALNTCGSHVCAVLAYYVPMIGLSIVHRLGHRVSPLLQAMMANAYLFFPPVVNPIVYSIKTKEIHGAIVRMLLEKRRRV
How it was run: as §1

O51L1 [1] = test system: T4, O51L1
T4 sequence (whole entry): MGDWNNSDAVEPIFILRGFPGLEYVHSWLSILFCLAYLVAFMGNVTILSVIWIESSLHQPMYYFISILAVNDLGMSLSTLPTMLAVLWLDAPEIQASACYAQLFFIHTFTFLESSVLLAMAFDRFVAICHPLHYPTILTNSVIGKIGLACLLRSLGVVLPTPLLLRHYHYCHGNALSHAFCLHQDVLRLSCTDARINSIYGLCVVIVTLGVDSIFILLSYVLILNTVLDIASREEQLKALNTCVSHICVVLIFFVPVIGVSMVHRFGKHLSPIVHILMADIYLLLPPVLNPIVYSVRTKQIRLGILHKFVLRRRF
How it was run: as §1

O51L1 [2] = test system: T5, O51L1; remark: listed apart in the source
T5 sequence (whole entry): T4 sequence (whole entry) with I196T, V207A, I281M
How it was run: as §1

O51M1 = test system: T6, O51M1
T6 sequence (whole entry): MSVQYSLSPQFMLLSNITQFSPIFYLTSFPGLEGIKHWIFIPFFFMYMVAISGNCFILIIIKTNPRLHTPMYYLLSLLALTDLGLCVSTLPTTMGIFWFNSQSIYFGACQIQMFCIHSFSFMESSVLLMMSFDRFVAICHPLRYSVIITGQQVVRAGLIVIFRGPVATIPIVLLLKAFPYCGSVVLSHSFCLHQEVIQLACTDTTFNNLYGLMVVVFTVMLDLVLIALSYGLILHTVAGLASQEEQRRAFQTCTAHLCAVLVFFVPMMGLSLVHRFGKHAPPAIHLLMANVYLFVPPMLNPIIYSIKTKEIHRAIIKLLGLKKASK
How it was run: as §1

O51Q1 = test system: T7, O51Q1
T7 sequence (whole entry): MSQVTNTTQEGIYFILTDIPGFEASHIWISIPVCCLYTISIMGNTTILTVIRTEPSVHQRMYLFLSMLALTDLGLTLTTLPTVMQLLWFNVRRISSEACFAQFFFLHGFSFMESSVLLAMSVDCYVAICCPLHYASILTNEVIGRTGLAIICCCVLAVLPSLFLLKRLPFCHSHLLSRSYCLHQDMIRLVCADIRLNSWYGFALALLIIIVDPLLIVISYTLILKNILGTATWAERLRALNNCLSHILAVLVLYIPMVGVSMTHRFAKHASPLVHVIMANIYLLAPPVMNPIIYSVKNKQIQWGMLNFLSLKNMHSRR
How it was run: as §1

O51T1 = test system: T8, O51T1
T8 sequence (whole entry): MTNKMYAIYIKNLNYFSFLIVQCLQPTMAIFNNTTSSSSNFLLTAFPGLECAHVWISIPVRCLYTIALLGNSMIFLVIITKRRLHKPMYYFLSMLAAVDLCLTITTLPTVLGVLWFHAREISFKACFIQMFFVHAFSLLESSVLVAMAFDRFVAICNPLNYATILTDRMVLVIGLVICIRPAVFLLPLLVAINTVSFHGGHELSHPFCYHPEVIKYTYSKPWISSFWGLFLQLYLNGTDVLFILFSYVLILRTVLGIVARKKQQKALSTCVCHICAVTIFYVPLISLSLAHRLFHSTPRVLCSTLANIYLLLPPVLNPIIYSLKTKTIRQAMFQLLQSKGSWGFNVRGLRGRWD
How it was run: as §1

O51V1 [3] = test system: T9, O51V1
T9 sequence (whole entry): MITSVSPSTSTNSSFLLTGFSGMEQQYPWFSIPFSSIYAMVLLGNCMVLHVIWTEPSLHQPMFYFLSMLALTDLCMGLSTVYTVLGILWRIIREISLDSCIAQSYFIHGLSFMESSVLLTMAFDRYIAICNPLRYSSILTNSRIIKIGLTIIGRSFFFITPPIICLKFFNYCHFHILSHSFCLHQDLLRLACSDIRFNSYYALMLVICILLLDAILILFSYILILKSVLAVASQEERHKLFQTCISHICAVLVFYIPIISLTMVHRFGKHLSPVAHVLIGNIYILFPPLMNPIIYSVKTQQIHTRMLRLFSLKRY
How it was run: as §1

O51V1 [4] = test system: T10, O51V1; remark: listed apart in the source
T10 sequence (whole entry): T9 sequence (whole entry) with F30L, W53C, R90G, R189C
How it was run: as §1

O52A1 = test system: T11, O52A1
T11 sequence (whole entry): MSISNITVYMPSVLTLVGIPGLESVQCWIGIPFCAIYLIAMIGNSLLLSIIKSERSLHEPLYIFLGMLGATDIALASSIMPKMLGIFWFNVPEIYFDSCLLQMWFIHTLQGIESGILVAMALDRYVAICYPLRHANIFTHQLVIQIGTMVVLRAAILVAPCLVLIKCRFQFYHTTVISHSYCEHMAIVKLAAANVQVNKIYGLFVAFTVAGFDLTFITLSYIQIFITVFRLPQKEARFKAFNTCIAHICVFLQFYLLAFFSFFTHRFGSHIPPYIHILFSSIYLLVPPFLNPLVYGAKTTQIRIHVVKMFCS
How it was run: as §1

O52B2 = test system: T12, O52B2
T12 sequence (whole entry): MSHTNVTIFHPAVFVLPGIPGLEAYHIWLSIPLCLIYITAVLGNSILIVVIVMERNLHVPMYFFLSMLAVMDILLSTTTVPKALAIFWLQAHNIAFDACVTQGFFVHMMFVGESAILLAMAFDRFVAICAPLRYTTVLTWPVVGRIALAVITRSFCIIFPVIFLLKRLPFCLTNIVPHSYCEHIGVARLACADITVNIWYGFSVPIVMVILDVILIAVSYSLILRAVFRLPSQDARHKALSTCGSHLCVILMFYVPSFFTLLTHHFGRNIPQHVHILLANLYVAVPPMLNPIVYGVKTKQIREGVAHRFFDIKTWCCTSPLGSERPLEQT
How it was run: as §1

O52B6 = test system: T13, O52B6
T13 sequence (whole entry): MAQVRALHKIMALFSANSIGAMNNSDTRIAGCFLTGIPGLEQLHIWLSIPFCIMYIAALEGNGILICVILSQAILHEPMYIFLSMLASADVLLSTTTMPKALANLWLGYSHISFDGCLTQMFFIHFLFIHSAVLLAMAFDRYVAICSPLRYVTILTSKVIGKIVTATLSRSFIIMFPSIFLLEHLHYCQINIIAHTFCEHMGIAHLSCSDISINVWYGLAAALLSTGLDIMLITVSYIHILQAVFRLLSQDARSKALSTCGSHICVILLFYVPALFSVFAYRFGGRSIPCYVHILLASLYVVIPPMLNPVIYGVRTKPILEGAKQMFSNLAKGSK
How it was run: as §1

O52E1 = test system: O52E1
How it was run: as §1

O52E2 = test system: O52E2
How it was run: as §1

O52E4 = test system: O52E4
How it was run: as §1

O52E5 = test system: O52E5
How it was run: as §1

O52E8 = test system: O52E8
How it was run: as §1

O52I2 = test system: T14, O52I2
T14 sequence (whole entry): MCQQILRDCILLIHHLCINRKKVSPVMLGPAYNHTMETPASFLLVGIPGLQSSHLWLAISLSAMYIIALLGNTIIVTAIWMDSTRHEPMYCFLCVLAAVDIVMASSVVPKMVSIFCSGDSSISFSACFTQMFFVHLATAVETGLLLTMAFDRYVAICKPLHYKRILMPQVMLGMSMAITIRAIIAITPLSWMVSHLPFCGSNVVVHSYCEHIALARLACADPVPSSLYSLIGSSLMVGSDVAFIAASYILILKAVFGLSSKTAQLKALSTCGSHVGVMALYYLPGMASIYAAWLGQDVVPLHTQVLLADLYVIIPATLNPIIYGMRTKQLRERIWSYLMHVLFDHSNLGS
How it was run: as §1

O52H1 = test system: T15, O52H1
T15 sequence (whole entry): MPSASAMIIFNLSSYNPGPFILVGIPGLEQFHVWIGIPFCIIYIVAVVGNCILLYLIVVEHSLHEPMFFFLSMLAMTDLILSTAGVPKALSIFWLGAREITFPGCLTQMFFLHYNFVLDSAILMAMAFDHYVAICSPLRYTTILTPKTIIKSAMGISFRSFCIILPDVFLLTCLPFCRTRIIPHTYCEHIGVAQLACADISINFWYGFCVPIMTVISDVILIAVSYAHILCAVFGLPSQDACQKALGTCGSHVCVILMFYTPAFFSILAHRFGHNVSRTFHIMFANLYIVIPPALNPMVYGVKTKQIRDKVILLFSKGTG
How it was run: as §1

SMILES	odorant receptor agonist call (O51G1)	odorant receptor agonist call (O51G2)	odorant receptor agonist call (O51J1)	odorant receptor agonist call (O51L1 [1])	odorant receptor agonist call (O51L1 [2])	odorant receptor agonist call (O51M1)	odorant receptor agonist call (O51Q1)	odorant receptor agonist call (O51T1)	odorant receptor agonist call (O51V1 [3])	odorant receptor agonist call (O51V1 [4])	odorant receptor agonist call (O52A1)	odorant receptor agonist call (O52B2)	odorant receptor agonist call (O52B6)	odorant receptor agonist call (O52E1)	odorant receptor agonist call (O52E2)	odorant receptor agonist call (O52E4)	odorant receptor agonist call (O52E5)	odorant receptor agonist call (O52E8)	odorant receptor agonist call (O52I2)	odorant receptor agonist call (O52H1)
CCC=CCCO	inactive	inactive	inactive	inactive	inactive	inactive	inactive	inactive	inactive	inactive	inactive	inactive	inactive	inactive	inactive	inactive	inactive	inactive	inactive	
CC(C)CCC(=O)O	inactive	inactive	inactive	inactive	active	inactive	inactive	inactive	inactive	inactive	inactive	inactive	inactive	inactive	inactive	inactive	inactive	inactive	inactive	
O=CCc1ccccc1	inactive	inactive	active	active	active	active	inactive	inactive	active	active	inactive	inactive	inactive	inactive	inactive	inactive	active	inactive	inactive	
CC(=O)C(C)=O	inactive	inactive	inactive	inactive	inactive	active	inactive	inactive	inactive	inactive	inactive	inactive	inactive	inactive	inactive	inactive	active	inactive	inactive	active
CC12C=CCC1C1CCC3=CC(=O)CCC3(C)C1CC2 (centres undefined)	inactive	inactive	inactive	active	inactive	inactive	inactive	inactive	inactive	inactive	inactive	inactive	inactive	inactive	inactive	active	active	inactive	inactive	
CCC1(O)C2(C)CCC(C2)C1(C)C (centres undefined)	inactive	inactive	inactive	inactive	inactive	inactive	inactive	inactive	inactive	inactive	inactive	inactive	inactive	inactive	inactive	inactive	inactive	inactive	inactive	
C=CCSCC=C	inactive	inactive	inactive	inactive	inactive	active	inactive	inactive	inactive	inactive	inactive	inactive	inactive	inactive	inactive	inactive	active	inactive	inactive	
